Reference: PubChem BioAssay AID504467 (National Center for Advancing Translational Sciences (NCATS), 2011)
In all, about 330,000 compounds went through this assay and about 7,700 (2.3%) were called active. The inconclusive results got no clear call from the source; some entries with a clear call stand among them for comparison. Calls follow the shape of the dose curve; as a rule, active = well fitted inhibition curve with a large enough effect; inconclusive = small, poorly fitted or top-dose-only effect, or effect the other way; inactive = flat fitted curve, though single readings scatter. Potencies of inconclusive entries are doubtful fits and often do not repeat.
% is scaled to controls: 0 for no effect and ±100 for the full control effect; potency is read from the fitted curve at half-maximal effect.

Experiment: qHTS screen for small molecules that inhibit ELG1-dependent DNA repair in human embryonic kidney (HEK293T) cells expressing luciferase-tagged ELG1; also: nearly all actives have a fitted effect of over 55% in size
Details: HEK293T ELG1-luciferase reporter, luminescence, 16 h, DNA damage induced by 5-fluorouridine; activity change, negative = inhibition: at 46.1 µM (top of the series)
In short: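 DMSO vehicle served as the neutral condition. Each well held 2,000 cells given 5-fluorouridine plus compound; after 16 hr at 37 °C/5% CO2, ONE-Glo was added and luciferase measured 30 min later.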
For `CCOC(=O)N1CCc2c(sc3c2C(=O)NC(c2ccccc2)N3)C1` (configuration not stated), the “activity change, negative = inhibition” value was inactive: 9.04%. For `Cc1ccc(C)c(N=C2CCCN2Cc2ccccc2)c1C#N`, the “activity change, negative = inhibition” value was inactive: -15.2%. For `CN(Cc1c(C(=O)N/N=C/c2cccc(O)c2)nnn1-c1nonc1N)C1CCCCC1`, the Potency was inconclusive: 25.9 µM [inhibitor, partial curve, poor fit]. For `O=C(Nc1ccc(Cl)c(Cl)c1)C1CCN(C(=O)c2ccco2)CC1`, the “activity change, negative = inhibition” value was inactive: 1.07%. In the case of `COc1cc2c(cc1OC)C1=C(C#N)CC/C(=N\S(=O)(=O)c3ccccc3)N1CC2`, the Potency is reported as inconclusive: 18.4 µM [inhibitor, partial curve]. For `COCc1nnc(NC(=O)c2ccc(S(=O)(=O)N(C)c3ccccc3)cc2)o1`, the “activity change, negative = inhibition” value was inactive: 1.04%. In the case of `O=C(Nc1ccc(N2CCCC2)cc1)c1cccc(F)c1`, the Potency is reported as inconclusive: 1.03 µM [activator, partial curve]. In the case of `Cc1occc1C(=O)Nc1ccccc1C(=O)O`, the Potency is reported as inconclusive: 23.1 µM [activator, single point]. With `COCCCNC(=O)c1cc(S(=O)(=O)NCCCN2CCCC2=O)ccc1Cl` the “activity change, negative = inhibition” value was inactive: 13.3%. For `CC(C)Oc1ccc(C(=O)Nc2ccc(N(C)C)cc2)cc1`, the Potency was inconclusive: 4.11 µM [activator, partial curve]. In the case of `Cc1cc(NN)nc(Cc2ccccc2)n1`, the “activity change, negative = inhibition” value is reported as inactive: 2.56%. In the case of `S=C(NCc1ccco1)N1CCN(C(c2ccccc2)c2ccccc2)CC1`, the “activity change, negative = inhibition” value is reported as inactive: -8.51%. For `Cc1ccc(CN2CC(C(=O)Nc3cccc(S(=O)(=O)N4CCCCC4)c3)CC2=O)cc1` (configuration not stated), the Potency was inconclusive: 14.6 µM [inhibitor, partial curve, poor fit]. In the case of `CC(Sc1ccc(Cl)cc1)C(=O)NCc1ccc2c(c1)OCO2` (configuration not stated), the “activity change, negative = inhibition” value is reported as inactive: -8.4%. For `CC(Cl)C(=O)NC(=O)NC12CC3CC(CC(C3)C1)C2` (configuration not stated), the Potency was inconclusive: 20.6 µM [activator, single point]. With `Cc1ccc(Cn2cnc3ccccc32)cc1` the Potency was inconclusive: 9.2 µM [inhibitor, partial curve, poor fit]. In the case of `Cc1ccsc1/C=N/N1CCN(c2ccccc2)CC1`, the Potency is reported as inconclusive: 16.4 µM [activator, single point]. In the case of `CC(C)CCN(CCC(C)C)CC(O)Cn1c2ccccc2c(=O)c2ccccc21` (configuration not stated), the Potency is reported as inconclusive: 29.1 µM [inhibitor, single point]. In the case of `COC(=O)C1=C(C)C(c2ccc(OC)cc2)NC(=O)N1` (configuration not stated), the Potency is reported as inconclusive: 29.1 µM [activator, single point]. With `O=C(Nc1ccc(SC(F)F)cc1)c1ccc2c(=O)n3c(nc2c1)CCC3` the Potency was inconclusive: 2.06 µM [activator, partial curve, poor fit]. In the case of `Cc1cc(C)n(C(C)CNS(=O)(=O)c2ccc(C)c(C)c2)n1` (configuration not stated), the “activity change, negative = inhibition” value is reported as inactive: -2.19%. For `CC(C)(C)c1ccc(OCC(=O)N/N=C/c2ccsc2)cc1`, the “activity change, negative = inhibition” value was inactive: 17%. In the case of `O=C(Nc1nc2cc3c(cc2s1)OCO3)c1ccc(N2C(=O)CCC2=O)cc1`, the “activity change, negative = inhibition” value is reported as inactive: 0%. With `COc1ccc(-c2csc(NC(=O)CCCc3nc4ccccc4c(=O)[nH]3)n2)cc1OC` the Potency was inconclusive: 5.8 µM [inhibitor, single point]. For `CC(C)(C)c1cc[n+](C2=C([O-])c3ccccc3C(=O)/C2=N\S(=O)(=O)c2ccccc2)cc1`, the Potency was active: 14.6 µM. With `O=C(NCc1ccccc1Cl)c1cnc2ccccc2n1` the Potency was inconclusive: 23.1 µM [activator, partial curve, poor fit]. In the case of `CCOC(=O)C1=C(C)NC(=S)NC1/C=C/c1ccccc1` (configuration not stated), the Potency is reported as inconclusive: 18.4 µM [inhibitor, single point]. In the case of `CCOC(=O)c1c(C)nc2sc3c(=O)n(-c4ccc(OC)cc4)cnc3c2c1-c1ccc(OC)cc1`, the “activity change, negative = inhibition” value is reported as inactive: -9.12%. In the case of `CC(=O)Nc1ccc(OCC(O)Cn2nc(C)nc2C)cc1` (configuration not stated), the Potency is reported as inconclusive: 16.4 µM [activator, single point]. In the case of `O=C(Nc1ccccc1)Nc1c(F)cccc1F`, the Potency is reported as inconclusive: 29.1 µM [activator, single point]. For `CCN(CC)S(=O)(=O)c1cccc(C(=O)Nc2ccc(Cl)cn2)c1`, the “activity change, negative = inhibition” value was inactive: -28%. In the case of `COc1cccc(C(=O)COC(=O)c2cccs2)c1`, the Potency is reported as inconclusive: 23.1 µM [activator, single point]. For `O=C(N[C@H]1C/C=C\C[C@@H](CC(=O)N(CCO)Cc2ccccc2)C(=O)N2CCC[C@@H]2COC1=O)OCC1c2ccccc2-c2ccccc21`, the Potency was inconclusive: 29.1 µM [activator, partial curve, poor fit]. With `COc1ccc(CCC(=O)Nc2cc(S(C)(=O)=O)ccc2Cl)cc1` the Potency was inconclusive: 6.51 µM [activator, partial curve, poor fit]. In the case of `COc1ccc(NC(=O)CN2CCN(c3ccc(C)cc3C)CC2)cc1`, the “activity change, negative = inhibition” value is reported as inactive: 25.6%. In the case of `COc1ccc(-c2nc(C(=O)O)cs2)cc1OC`, the Potency is reported as inconclusive: 29.1 µM [activator, single point]. In the case of `CCCCNc1ccc(C(=O)Nc2cccc(C)n2)cc1[N+](=O)[O-]`, the Potency is reported as inconclusive: 2.06 µM [activator, single point]. For `O=C(Nc1ccc(N2CCN(C(=O)c3cccs3)CC2)cc1)c1cccnc1`, the Potency was inconclusive: 32.6 µM [inhibitor, single point]. For `CC(=O)Nc1ccc(S(=O)(=O)N(CC(=O)NC2CC2)Cc2ccccc2)cc1`, the “activity change, negative = inhibition” value was inactive: 23%. For `CCCN1CNC(=S)N(CC2CCCO2)C1` (configuration not stated), the Potency was inconclusive: 16.4 µM [activator, partial curve]. With `Cc1cc(C(F)F)n2ncc(C(=O)NCc3ccccc3)c2n1` the “activity change, negative = inhibition” value was inactive: -3.13%. With `N#Cc1ccccc1/C=N/Nc1nc(-c2ccccc2)c2cc(Cl)ccc2n1` the “activity change, negative = inhibition” value was inactive: 0.157%. In the case of `Nc1nc2ccc([N+](=O)[O-])c(N)c2s1`, the Potency is reported as inconclusive: 29.1 µM [activator, single point]. In the case of `C[C@H]1COC(=O)[C@H](CC(=O)OC(C)(C)C)C/C=C\C[C@@H](CC(=O)N[C@H](CO)Cc2ccccc2)C(=O)N1`, the “activity change, negative = inhibition” value is reported as inactive: -6.43%. In the case of `CCc1ccc(NC(=O)CSc2nnc(CNC(=O)c3c(F)cccc3Cl)o2)cc1`, the Potency is reported as inconclusive: 7.31 µM [inhibitor, partial curve, poor fit]. In the case of `Cc1cc2cc(CNC(=O)Nc3cccc(Cl)c3)ccc2n1C`, the “activity change, negative = inhibition” value is reported as inactive: -14.8%. In the case of `CCCn1c(NC(=O)c2ccc(Cl)c(S(=O)(=O)N3CCCC3)c2)nc2ccccc21`, the Potency is reported as inconclusive: 23.1 µM [inhibitor, single point]. For `Cc1ccnn1CC(=O)N/N=C/c1cn[nH]c1-c1ccc(F)cc1`, the Potency was inconclusive: 0.291 µM [inhibitor, partial curve, poor fit]. In the case of `O=C(Nn1cc(C(=O)Nc2ccccc2F)c2ccccc2c1=O)c1cnccn1`, the Potency is reported as inconclusive: 4.11 µM [inhibitor, partial curve, poor fit]. With `COc1ccc(N(C(=O)Cn2nnc3ccccc32)C(C(=O)NCc2ccco2)c2ccc(C)o2)cc1` (configuration not stated) the “activity change, negative = inhibition” value was inactive: -23.7%. With `COc1ccc(N2CCN(C(=O)c3ccc(-c4ccccc4)cc3)CC2)cc1` the “activity change, negative = inhibition” value was inactive: 3.19%. In the case of `COc1ccc(Cn2cnc3c(NS(C)(=O)=O)c(C)c(C)cc32)cc1`, the Potency is reported as inconclusive: 25.9 µM [inhibitor, partial curve, poor fit]. In the case of `COc1ccc(S(=O)(=O)N2CCN(C(=O)COc3ccc4c(C)cc(=O)oc4c3)CC2)cc1`, the Potency is reported as inconclusive: 23.1 µM [inhibitor, single point]. With `Cc1ccc(S(=O)(=O)c2cc3c(=O)n4ccccc4nc3n(Cc3ccco3)c2=N)cc1C` the “activity change, negative = inhibition” value was inactive: -0.81%. With `Cc1cc([N+](=O)[O-])nn1CC(=O)NNC(=S)Nc1ccc(F)cc1` the “activity change, negative = inhibition” value was inactive: 0%. With `COc1cc2c(cc1OC)C(C)N(C(=O)C(NC(=O)c1ccccc1)C(C)C)CC2` (configuration not stated) the “activity change, negative = inhibition” value was inactive: -14.5%. In the case of `Cc1ccc(S(=O)(=O)n2c([N+](=O)[O-])cnc2C)c(C)c1C`, the “activity change, negative = inhibition” value is reported as inactive: 10.3%. With `CC[n+]1cccc(-c2nc3ccccc3s2)c1` the “activity change, negative = inhibition” value was inactive: -12.5%. In the case of `Cc1ccc(OCc2nnc(SCc3ccc(C#N)cc3)n2-c2ccc(C)cc2)cc1`, the “activity change, negative = inhibition” value is reported as inactive: -10.9%. With `O=C(CC1CCCCC1)NCCOc1ccccc1` the Potency was inconclusive: 16.4 µM [activator, single point]. In the case of `Cc1ccc2c(c1)-c1c(cnn1CC(=O)N1CCCN(Cc3ccccc3F)C1)CO2`, the Potency is reported as inconclusive: 23.1 µM [inhibitor, single point]. For `CCOC(=O)Cc1csc(NC(=O)c2cccc([N+](=O)[O-])c2)n1`, the Potency was inconclusive: 13 µM [inhibitor, partial curve, poor fit]. For `CNC(=O)c1cccc(NC(=O)c2cc(-c3ccccc3)nc3c2cnn3C(C)C)c1`, the Potency was active: 7.94 µM. With `O=C(NC(=S)Nc1ccc(S(=O)(=O)Nc2nccs2)cc1)c1ccccc1F` the “activity change, negative = inhibition” value was inactive: -5.01%. For `O=C1C=C(/C=C/c2ccccc2)C[C@@H](c2ccc(F)cc2)C1`, the Potency was inconclusive: 11.6 µM [activator, partial curve]. For `COCCNC(=O)c1cc2nc(-c3ccccc3)cc(C)n2n1`, the Potency was inconclusive: 16.4 µM [activator, partial curve, poor fit]. In the case of `CCOC(=O)C1(CCOc2ccccc2)CCN(Cc2cccc(OC)c2O)CC1`, the Potency is reported as inconclusive: 13 µM [inhibitor, partial curve]. With `O=C(COc1ccc2oc(-c3ccccc3)cc(=O)c2c1)Nc1ccccc1` the Potency was inconclusive: 13 µM [activator, partial curve, poor fit]. For `O=C(C1=C[C@@H](c2ccc(Br)cc2)C[C@@H](OCCCCO)O1)N1CCN(Cc2ccccc2)CC1`, the Potency was inconclusive: 32.6 µM [inhibitor, single point]. For `O=C(c1ccc(F)cc1)N1CCN(Cc2ccccc2Br)CC1`, the “activity change, negative = inhibition” value was inactive: 9.33%. For `CC(C)(C)c1ccc(SCCc2ccncc2)cc1`, the “activity change, negative = inhibition” value was inactive: 12.8%. In the case of `Cc1ccccc1S(=O)(=O)Oc1cccc2c(O)cccc12`, the Potency is reported as inconclusive: 9.2 µM [activator, partial curve, poor fit].
